PubChem BioAssay AID1508597 – Cure First, 2020
Assay: 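Genes whose silencing sensitises or protects ovarian cancer cells against rucaparib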 (primary screen). Cell system: human ovarian carcinoma lines grown from tumours: OCI-P5x (papillary serous) and OCI-C5x (clear cell). Reagents: siRNA pool against human genes, 1.25 pmol siRNA per well. Duration: 72 h or 96 h, depending on the cell culture. Conditions: rucaparib 20 µM (about IC30) or vehicle, present until read-out. Read-out: 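ATP luminescence measured at 72 or 96 h according to the culture, then normalised and expressed as percent viability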. Reading the numbers: viability, normalised: higher = more viable cells remaining. Hit rule: 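a well counts as a hit if its normalised viability is under 80 percent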. Meaning of the calls: active = viability under 80%; inactive = viability 80% or more.
Here is one part, drawn at random, of about 2,100 reagents tested. 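Calls flag viability under 80% in either arm, not effects specific to rucaparib; the reference for percent is not stated.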 Unmarked entries are inactive. Not stated in the record: the 100% reference.

Target gene	rucaparib or vehicle	cell line	technical replicate	viability, normalised (%)
EPHA5 (EPH receptor A5)	Rucaparib	OCI-C5x (clear cell)	1	53.3 (active)
EPHA5 (EPH receptor A5)	Rucaparib	OCI-C5x (clear cell)	2	53.6 (active)
EPHA5 (EPH receptor A5)	Rucaparib	OCI-C5x (clear cell)	3	67.3 (active)
EPHA5 (EPH receptor A5)	Rucaparib	OCI-P5x (serous)	1	120
EPHA5 (EPH receptor A5)	Rucaparib	OCI-P5x (serous)	2	119
EPHA5 (EPH receptor A5)	Rucaparib	OCI-P5x (serous)	3	111
EPHA5 (EPH receptor A5)	Vehicle	OCI-C5x (clear cell)	1	64 (active)
EPHA5 (EPH receptor A5)	Vehicle	OCI-C5x (clear cell)	2	40.2 (active)
EPHA5 (EPH receptor A5)	Vehicle	OCI-C5x (clear cell)	3	44.6 (active)
EPHA5 (EPH receptor A5)	Vehicle	OCI-P5x (serous)	1	106
EPHA5 (EPH receptor A5)	Vehicle	OCI-P5x (serous)	2	76.6 (active)
EPHA5 (EPH receptor A5)	Vehicle	OCI-P5x (serous)	3	102
BRD10 (bromodomain containing 10)	Rucaparib	OCI-C5x (clear cell)	1	23.3 (active)
BRD10 (bromodomain containing 10)	Rucaparib	OCI-C5x (clear cell)	2	24.6 (active)
BRD10 (bromodomain containing 10)	Rucaparib	OCI-C5x (clear cell)	3	24.3 (active)
BRD10 (bromodomain containing 10)	Rucaparib	OCI-P5x (serous)	1	51.1 (active)
BRD10 (bromodomain containing 10)	Rucaparib	OCI-P5x (serous)	2	51.8 (active)
BRD10 (bromodomain containing 10)	Rucaparib	OCI-P5x (serous)	3	48.7 (active)
BRD10 (bromodomain containing 10)	Vehicle	OCI-C5x (clear cell)	1	28.6 (active)
BRD10 (bromodomain containing 10)	Vehicle	OCI-C5x (clear cell)	2	23 (active)
BRD10 (bromodomain containing 10)	Vehicle	OCI-C5x (clear cell)	3	37.4 (active)
BRD10 (bromodomain containing 10)	Vehicle	OCI-P5x (serous)	1	63 (active)
BRD10 (bromodomain containing 10)	Vehicle	OCI-P5x (serous)	2	51.1 (active)
BRD10 (bromodomain containing 10)	Vehicle	OCI-P5x (serous)	3	56.2 (active)
EPC1 (enhancer of polycomb 1)	Rucaparib	OCI-C5x (clear cell)	1	60.6 (active)
EPC1 (enhancer of polycomb 1)	Rucaparib	OCI-C5x (clear cell)	2	55.9 (active)
EPC1 (enhancer of polycomb 1)	Rucaparib	OCI-C5x (clear cell)	3	51.5 (active)
EPC1 (enhancer of polycomb 1)	Rucaparib	OCI-P5x (serous)	1	45.4 (active)
EPC1 (enhancer of polycomb 1)	Rucaparib	OCI-P5x (serous)	2	45.4 (active)
EPC1 (enhancer of polycomb 1)	Rucaparib	OCI-P5x (serous)	3	56.4 (active)
EPC1 (enhancer of polycomb 1)	Vehicle	OCI-C5x (clear cell)	1	54.4 (active)
EPC1 (enhancer of polycomb 1)	Vehicle	OCI-C5x (clear cell)	2	63.1 (active)
EPC1 (enhancer of polycomb 1)	Vehicle	OCI-C5x (clear cell)	3	71.4 (active)
EPC1 (enhancer of polycomb 1)	Vehicle	OCI-P5x (serous)	1	51.8 (active)
EPC1 (enhancer of polycomb 1)	Vehicle	OCI-P5x (serous)	2	42.1 (active)
EPC1 (enhancer of polycomb 1)	Vehicle	OCI-P5x (serous)	3	56.2 (active)
SPOCK2	Rucaparib	OCI-C5x (clear cell)	1	48 (active)
SPOCK2	Rucaparib	OCI-C5x (clear cell)	2	35.7 (active)
SPOCK2	Rucaparib	OCI-C5x (clear cell)	3	35.9 (active)
SPOCK2	Rucaparib	OCI-P5x (serous)	1	58.6 (active)
SPOCK2	Rucaparib	OCI-P5x (serous)	2	53.7 (active)
SPOCK2	Rucaparib	OCI-P5x (serous)	3	54.9 (active)
SPOCK2	Vehicle	OCI-C5x (clear cell)	1	53.8 (active)
SPOCK2	Vehicle	OCI-C5x (clear cell)	2	45.7 (active)
SPOCK2	Vehicle	OCI-C5x (clear cell)	3	47.1 (active)
SPOCK2	Vehicle	OCI-P5x (serous)	1	58.3 (active)
SPOCK2	Vehicle	OCI-P5x (serous)	2	51.7 (active)
SPOCK2	Vehicle	OCI-P5x (serous)	3	72.1 (active)
SNCA (synuclein alpha)	Rucaparib	OCI-C5x (clear cell)	1	44.7 (active)
SNCA (synuclein alpha)	Rucaparib	OCI-C5x (clear cell)	2	51.5 (active)
SNCA (synuclein alpha)	Rucaparib	OCI-C5x (clear cell)	3	45.1 (active)
SNCA (synuclein alpha)	Rucaparib	OCI-P5x (serous)	1	49.1 (active)
SNCA (synuclein alpha)	Rucaparib	OCI-P5x (serous)	2	56.9 (active)
SNCA (synuclein alpha)	Rucaparib	OCI-P5x (serous)	3	54.6 (active)
SNCA (synuclein alpha)	Vehicle	OCI-C5x (clear cell)	1	46.6 (active)
SNCA (synuclein alpha)	Vehicle	OCI-C5x (clear cell)	2	47.2 (active)
SNCA (synuclein alpha)	Vehicle	OCI-C5x (clear cell)	3	43.2 (active)
SNCA (synuclein alpha)	Vehicle	OCI-P5x (serous)	1	55.8 (active)
SNCA (synuclein alpha)	Vehicle	OCI-P5x (serous)	2	52.1 (active)
SNCA (synuclein alpha)	Vehicle	OCI-P5x (serous)	3	69.7 (active)
TRIO (trio Rho guanine nucleotide exchange factor)	Rucaparib	OCI-C5x (clear cell)	1	53.2 (active)
TRIO (trio Rho guanine nucleotide exchange factor)	Rucaparib	OCI-C5x (clear cell)	2	58.8 (active)
TRIO (trio Rho guanine nucleotide exchange factor)	Rucaparib	OCI-C5x (clear cell)	3	72.3 (active)
TRIO (trio Rho guanine nucleotide exchange factor)	Rucaparib	OCI-P5x (serous)	1	94.7
TRIO (trio Rho guanine nucleotide exchange factor)	Rucaparib	OCI-P5x (serous)	2	118
TRIO (trio Rho guanine nucleotide exchange factor)	Rucaparib	OCI-P5x (serous)	3	108
TRIO (trio Rho guanine nucleotide exchange factor)	Vehicle	OCI-C5x (clear cell)	1	78.8 (active)
TRIO (trio Rho guanine nucleotide exchange factor)	Vehicle	OCI-C5x (clear cell)	2	60.7 (active)
TRIO (trio Rho guanine nucleotide exchange factor)	Vehicle	OCI-C5x (clear cell)	3	59.1 (active)
TRIO (trio Rho guanine nucleotide exchange factor)	Vehicle	OCI-P5x (serous)	1	114
TRIO (trio Rho guanine nucleotide exchange factor)	Vehicle	OCI-P5x (serous)	2	93.7
TRIO (trio Rho guanine nucleotide exchange factor)	Vehicle	OCI-P5x (serous)	3	76.7 (active)
H4C3 (H4 clustered histone 3)	Rucaparib	OCI-C5x (clear cell)	1	46.2 (active)
H4C3 (H4 clustered histone 3)	Rucaparib	OCI-C5x (clear cell)	2	37.6 (active)
H4C3 (H4 clustered histone 3)	Rucaparib	OCI-C5x (clear cell)	3	39.9 (active)
H4C3 (H4 clustered histone 3)	Rucaparib	OCI-P5x (serous)	1	53.4 (active)
H4C3 (H4 clustered histone 3)	Rucaparib	OCI-P5x (serous)	2	52.4 (active)
H4C3 (H4 clustered histone 3)	Rucaparib	OCI-P5x (serous)	3	52 (active)
H4C3 (H4 clustered histone 3)	Vehicle	OCI-C5x (clear cell)	1	41.4 (active)
H4C3 (H4 clustered histone 3)	Vehicle	OCI-C5x (clear cell)	2	41.9 (active)
H4C3 (H4 clustered histone 3)	Vehicle	OCI-C5x (clear cell)	3	34.4 (active)
H4C3 (H4 clustered histone 3)	Vehicle	OCI-P5x (serous)	1	60.1 (active)
H4C3 (H4 clustered histone 3)	Vehicle	OCI-P5x (serous)	2	67.4 (active)
H4C3 (H4 clustered histone 3)	Vehicle	OCI-P5x (serous)	3	65.5 (active)

Part of the list above, reformatted:
SPOCK2, rucaparib or vehicle Rucaparib, cell line OCI-P5x (serous), technical replicate 3
- viability, normalised (%): 54.9 (active)

SPOCK2, rucaparib or vehicle Vehicle, cell line OCI-C5x (clear cell), technical replicate 1
- viability, normalised (%): 53.8 (active)

SPOCK2, rucaparib or vehicle Vehicle, cell line OCI-C5x (clear cell), technical replicate 2
- viability, normalised (%): 45.7 (active)

SPOCK2, rucaparib or vehicle Vehicle, cell line OCI-C5x (clear cell), technical replicate 3
- viability, normalised (%): 47.1 (active)

SPOCK2, rucaparib or vehicle Vehicle, cell line OCI-P5x (serous), technical replicate 1
- viability, normalised (%): 58.3 (active)

SPOCK2, rucaparib or vehicle Vehicle, cell line OCI-P5x (serous), technical replicate 2
- viability, normalised (%): 51.7 (active)

SPOCK2, rucaparib or vehicle Vehicle, cell line OCI-P5x (serous), technical replicate 3
- viability, normalised (%): 72.1 (active)

SNCA (synuclein alpha), rucaparib or vehicle Rucaparib, cell line OCI-C5x (clear cell), technical replicate 1
- viability, normalised (%): 44.7 (active)
